In test [1] the target is crossbeta E2 form cE2-B (Classical Swine Fever Virus) (UniProt P21530). The experiment in a line: ELISA, coated E2 form, Fn F4-5 concentration series, anti-FLAG detection. A general note: An ELISA detects its analyte on a solid surface through an enzyme-linked reagent.
For test [2], the target named is crossbeta E2 form cE2-A (Classical Swine Fever Virus) (UniProt P21530). Described as above.

Amino acid sequences for entries named in this document (tags omitted). Residues count along the entry.
UniProt P21530, residues 690-1030: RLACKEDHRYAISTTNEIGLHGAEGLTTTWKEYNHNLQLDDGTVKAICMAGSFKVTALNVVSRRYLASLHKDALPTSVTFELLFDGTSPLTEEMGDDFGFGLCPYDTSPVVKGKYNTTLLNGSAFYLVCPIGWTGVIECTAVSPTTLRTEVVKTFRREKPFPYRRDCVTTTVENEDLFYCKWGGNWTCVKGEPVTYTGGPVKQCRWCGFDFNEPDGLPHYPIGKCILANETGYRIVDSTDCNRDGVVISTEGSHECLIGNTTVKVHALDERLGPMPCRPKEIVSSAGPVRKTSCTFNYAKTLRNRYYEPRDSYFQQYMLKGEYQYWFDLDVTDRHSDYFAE
UniProt P02751, residues 184-273: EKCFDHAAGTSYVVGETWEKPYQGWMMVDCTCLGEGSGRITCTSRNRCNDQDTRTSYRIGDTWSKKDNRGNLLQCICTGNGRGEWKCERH

No constants are given. Whether binding was seen depends on the method and setting. Some binding calls cover weakened binding; strength is not graded here.

As to “fourth and fifth finger domain of fibronectin (Fn F4-5) with C-terminal FLAG-tag (from UniProt P02751 184-273)”, the binding result in test [1] and in test [2] was “binds” each time.

For the origin of these results see US20110052564A1.
